From patent US9029553B2, “2-anilino nicotinyl linked 2-amino benzothiazole conjugates and process for the preparation thereof” (Council of Scientific & Industrial Research, priority 2011, dated 2015)
Some entries share one result that the patent states for a list of compounds.

System: HL-60 cells
Assay: Loss of mitochondrial membrane potential (Rh-123 uptake)
Format: cell-based, human
Conditions: 1 μM, 48 h
Procedure: Rhodamine-123 uptake into mitochondria is driven by mitochondrial Transmembrane potential (Ψmt) that allows the determination of cell population with active integrated mitochondrial functions. Loss of Ψmt leads to depolarization of mitochondrial membranes leading to collapse of mitochondrial functions ensuing cell death. The loss of Ψmt indicated the loss of mitochondrial integrity to couple electrons to energy production. HL-60 cells exposed to tested compounds for 48 h at 1 μM were analyzed for Rh-123 uptake by flow cytometry. The percentage of cells with low Rh-123 quantum fluorescence indicative of loss of Ψmt was calculated among the total acquired cell events (10,000). In the untreated control cells, more than 90% cells were functionally active with high Rh-123 signals (FIG. 9).

Structure (SMILES) | loss of mitochondrial membrane potential, in words
O=C(Nc1nc2ccc([N+](=O)[O-])cc2s1)c1cccnc1Nc1ccccc1 [Compound 4, N-3-(6-Nitro-1,3-benzothiazol-2-yl)-2-(phenylamino)-3-pyridinecarboxamide] | induce loss of mitochondria membrane potential
O=C(Nc1nc2ccc([N+](=O)[O-])cc2s1)c1cccnc1Nc1ccc(F)cc1 [Compound 6, N3-(6-nitro-1,3-benzothiazol-2-yl)-2-(4-fluoroanilino)nicotinamide] | induce loss of mitochondria membrane potential
O=C(Nc1nc2ccc([N+](=O)[O-])cc2s1)c1cccnc1Nc1ccc(Cl)cc1Cl [Compound 7] | induce loss of mitochondria membrane potential
O=C(Nc1nc2ccc([N+](=O)[O-])cc2s1)c1cccnc1Nc1cc(F)c(F)c(F)c1 [Compound 8, N3-(6-nitro-1,3-benzothiazol-2-yl)-2-[(3,4,5-trifluorophenyl)amino]-3-pyridine carboxamide] | induce loss of mitochondria membrane potential
